Measurements taken from PMC9065076.
Results are given in words; binding and its absence hold for the method and conditions named. In cells and extracts the contact can be indirect. Some results given as binding are weak or reduced against the parent protein; the word gives no strength. For part of these data: Sequences can lack the tags named with a protein. One block for each molecule: values may come before it.

By UniProt entry, the sequences of proteins in these tests, tags left out. Where a name states a change or a piece, a line headed by the entry shows the natural chain unless it says otherwise. Residues count along the entry.
UniProt P48736: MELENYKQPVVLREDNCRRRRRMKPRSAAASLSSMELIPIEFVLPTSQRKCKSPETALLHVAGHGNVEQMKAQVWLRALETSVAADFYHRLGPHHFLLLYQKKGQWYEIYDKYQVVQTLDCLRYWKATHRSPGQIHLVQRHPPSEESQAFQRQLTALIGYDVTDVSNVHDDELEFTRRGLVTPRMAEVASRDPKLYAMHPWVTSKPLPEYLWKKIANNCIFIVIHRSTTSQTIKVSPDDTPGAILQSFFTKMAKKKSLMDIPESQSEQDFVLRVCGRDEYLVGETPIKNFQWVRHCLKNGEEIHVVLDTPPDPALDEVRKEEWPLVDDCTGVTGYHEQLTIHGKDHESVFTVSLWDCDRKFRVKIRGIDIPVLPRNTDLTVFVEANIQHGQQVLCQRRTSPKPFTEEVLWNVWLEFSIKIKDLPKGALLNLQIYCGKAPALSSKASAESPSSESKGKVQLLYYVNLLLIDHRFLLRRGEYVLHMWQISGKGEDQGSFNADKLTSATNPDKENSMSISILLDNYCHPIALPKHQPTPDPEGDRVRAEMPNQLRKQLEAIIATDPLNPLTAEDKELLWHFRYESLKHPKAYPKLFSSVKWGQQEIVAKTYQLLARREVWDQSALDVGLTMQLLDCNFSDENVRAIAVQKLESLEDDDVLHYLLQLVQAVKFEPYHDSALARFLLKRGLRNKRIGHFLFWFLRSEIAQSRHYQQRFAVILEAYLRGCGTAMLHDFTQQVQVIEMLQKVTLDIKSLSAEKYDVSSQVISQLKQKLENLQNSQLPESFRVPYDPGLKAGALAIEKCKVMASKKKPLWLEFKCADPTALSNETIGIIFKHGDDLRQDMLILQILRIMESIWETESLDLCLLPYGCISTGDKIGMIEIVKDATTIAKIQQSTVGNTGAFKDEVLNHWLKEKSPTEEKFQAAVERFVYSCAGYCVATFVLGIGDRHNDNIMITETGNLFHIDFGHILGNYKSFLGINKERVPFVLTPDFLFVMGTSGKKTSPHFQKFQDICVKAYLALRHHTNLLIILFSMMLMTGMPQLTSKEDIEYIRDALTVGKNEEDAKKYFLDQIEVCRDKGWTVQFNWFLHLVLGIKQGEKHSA
GST-p110γ_(1-216): residues 1-216 of P48736
UniProt Q96AM1: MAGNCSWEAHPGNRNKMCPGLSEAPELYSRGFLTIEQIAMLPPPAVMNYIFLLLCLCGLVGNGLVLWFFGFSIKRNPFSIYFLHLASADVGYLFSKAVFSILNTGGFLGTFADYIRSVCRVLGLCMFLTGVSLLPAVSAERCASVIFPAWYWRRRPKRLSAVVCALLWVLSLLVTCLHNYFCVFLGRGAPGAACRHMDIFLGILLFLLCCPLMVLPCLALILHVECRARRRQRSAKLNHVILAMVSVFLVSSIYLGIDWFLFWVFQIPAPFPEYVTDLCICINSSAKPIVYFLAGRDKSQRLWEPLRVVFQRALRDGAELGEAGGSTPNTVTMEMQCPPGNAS
GST-MrgprF_(274-343): residues 274-343 of Q96AM1

Legend:
GST-p110γ_(1-216) = GST-p110γ_(1-216) (UniProt P48736); assay: pull-down; GST, GST-MrgprF(274-343) or GST-p110γ(1-216) bound to glutathione resin, incubated with indicated total cell extracts at 4 °C overnight; immunoblot; only the target purified
Flag-tagged p110γ [1] = biological target: Flag-tagged p110γ (UniProt P48736); assay: co-IP; tagged constructs in pCDNA3.1+ transfected into HEK-293T; cell lysates immunoprecipitated with Flag, Myc or HA antibodies; immunoblot; in Fig. 4f with or without forced expression of MrgprF
[2] = biological target: endogenous p110γ (human (endogenous in CM cells)) (UniProt P48736); assay: co-IP; endogenous proteins in CM and other types of tumor cells; immunoblot
[3] = biological target: GST-MrgprF_(274-343) (human) (UniProt Q96AM1); assay: pull-down; GST, GST-MrgprF(274-343) or GST-p110γ(1-216) bound to glutathione resin, incubated with indicated total cell extracts at 4 °C overnight; immunoblot; only the target purified
Flag-tagged p110γ [4] = biological target: Flag-tagged p110γ (UniProt P48736); assay: co-IP; competition co-IP: extracts of HEK-293T transfected with p110γ-Flag and HA-p101 divided; GST-MrgprF fragment (100, 200, 300 nM) or GST (100, 200 nM) added

Molecule: endogenous MrgprF (from UniProt Q96AM1 1-343) (receptor)
- binding [2]: binds

B1: HA-p101 (protein, UniProt Q8WYR1 1-880)
chain: MQPGATTCTEDRIQHALERCLHGLSLSRRSTSWSAGLCLNCWSLQELVSRDPGHFLILLEQILQKTREVQEKGTYDLLTPLALLFYSTVLCTPHFPPDSDLLLKAASTYHRFLTWPVPYCSICQELLTFIDAELKAPGISYQRLVRAEQGLPIRSHRSSTVTVLLLNPVEVQAEFLAVANKLSTPGHSPHSAYTTLLLHAFQATFGAHCDVPGLHCRLQAKTLAELEDIFTETAEAQELASGIGDAAEARRWLRTKLQAVGEKAGFPGVLDTAKPGKLHTIPIPVARCYTYSWSQDSFDILQEILLKEQELLQPGILGDDEEEEEEEEEVEEDLETDGHCAERDSLLSTSSLASHDSTLSLASSQASGPALSRHLLTSFVSGLSDGMDSGYVEDSEESSSEWPWRRGSQERRGHRRPGQKFIRIYKLFKSTSQLVLRRDSRSLEGSSDTALPLRRAGSLCSPLDEPVSPPSRAQRSRSLPQPKLGTQLPSWLLAPASRPQRRRPFLSGDEDPKASTLRVVVFGSDRISGKVARAYSNLRRLENNRPLLTRFFKLQFFYVPVKRSHGTSPGACPPPRSQTPSPPTDSPRHASPGELGTTPWEESTNDISHYLGMLDPWYERNVLGLMHLPPEVLCQQSLKAEAQALEGSPTQLPILADMLLYYCRFAARPVLLQVYQTELTFITGEKTTEIFIHSLELGHSAATRAIKASGPGSKRLGIDGDREAVPLTLQIIYSKGAISGRSRWSNLEKVCTSVNLNKACRKQEELDSSMEALTLNLTEVVKRQNSKSKKGFNQISTSQIKVDKVQIIGSNSCPFAVCLDQDERKILQSVVRCEVSPCYKPEKSDLSSPPQTPPDLPAQAAPDLCSLLCLPIMTFSGALP
- binding (Flag-tagged p110γ [1]): binds
- binding (Flag-tagged p110γ [4]): binds

Further lines, results first:

- binding (GST-p110γ_(1-216)): binds
Molecule: MrgprF in total cell extracts (prey of the GST pull-down) (from UniProt Q96AM1 1-343) (receptor)

- binding (Flag-tagged p110γ [1]): binds
Molecule: Myc-tagged MrgprF (from UniProt Q96AM1 1-343) (receptor)

- binding [3]: binds
Molecule: p110γ in total cell extracts (prey of the GST pull-down) (from UniProt P48736 1-1102) (enzyme)
